From ChEMBL document CHEMBL3988442, “University of Dundee, Small-Polar-MMV Screening Library” (2021).

Sequences of proteins named here, by UniProt entry; tags and fusion partners are left off. Residues count along the entry.
UniProt Q4DA54, 1-478: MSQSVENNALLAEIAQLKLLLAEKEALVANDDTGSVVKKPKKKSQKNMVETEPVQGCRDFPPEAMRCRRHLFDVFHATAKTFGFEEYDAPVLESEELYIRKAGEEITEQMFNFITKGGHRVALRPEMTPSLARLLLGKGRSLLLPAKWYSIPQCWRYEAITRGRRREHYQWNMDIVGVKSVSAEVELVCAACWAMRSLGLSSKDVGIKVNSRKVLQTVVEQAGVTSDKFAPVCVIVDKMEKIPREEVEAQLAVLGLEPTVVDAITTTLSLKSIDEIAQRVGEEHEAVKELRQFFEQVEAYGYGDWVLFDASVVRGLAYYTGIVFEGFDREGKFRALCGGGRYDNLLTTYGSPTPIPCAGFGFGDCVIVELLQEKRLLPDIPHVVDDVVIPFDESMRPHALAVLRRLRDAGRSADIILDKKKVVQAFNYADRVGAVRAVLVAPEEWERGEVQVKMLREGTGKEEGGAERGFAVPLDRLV
UniProt P9WNZ1, whole entry: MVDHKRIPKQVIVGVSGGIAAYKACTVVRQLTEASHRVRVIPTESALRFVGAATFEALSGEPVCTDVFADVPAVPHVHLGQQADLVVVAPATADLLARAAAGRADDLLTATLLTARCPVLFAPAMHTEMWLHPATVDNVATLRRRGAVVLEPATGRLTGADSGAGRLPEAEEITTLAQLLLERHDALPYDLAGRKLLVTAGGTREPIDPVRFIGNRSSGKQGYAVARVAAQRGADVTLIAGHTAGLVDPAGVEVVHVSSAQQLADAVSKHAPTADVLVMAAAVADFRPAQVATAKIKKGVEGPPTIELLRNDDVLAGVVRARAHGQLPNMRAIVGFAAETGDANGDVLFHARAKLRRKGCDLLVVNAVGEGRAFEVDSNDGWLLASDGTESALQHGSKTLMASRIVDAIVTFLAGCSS
UniProt A4I591, 1-473: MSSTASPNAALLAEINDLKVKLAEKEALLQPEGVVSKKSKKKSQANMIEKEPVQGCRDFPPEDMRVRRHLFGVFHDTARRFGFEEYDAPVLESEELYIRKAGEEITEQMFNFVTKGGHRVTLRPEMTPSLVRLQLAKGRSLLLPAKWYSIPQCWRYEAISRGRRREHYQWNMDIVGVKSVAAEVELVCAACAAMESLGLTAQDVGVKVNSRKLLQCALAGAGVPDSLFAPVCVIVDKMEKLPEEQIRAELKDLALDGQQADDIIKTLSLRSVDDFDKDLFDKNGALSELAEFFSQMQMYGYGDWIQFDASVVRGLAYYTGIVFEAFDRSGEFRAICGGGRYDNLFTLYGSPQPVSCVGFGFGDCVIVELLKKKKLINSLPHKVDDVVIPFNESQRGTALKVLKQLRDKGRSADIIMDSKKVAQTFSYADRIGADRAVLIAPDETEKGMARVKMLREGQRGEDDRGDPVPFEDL

A: 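Enzyme assay of histidyl-tRNA synthetase; the read-out is not stated. Target: Histidine-tRNA ligase, Trypanosoma cruzi CL Brener (UniProt Q4DA54). Concentration: 30 µM. Direction is inferred from retests: higher values go with stronger inhibition. About 69,000 compounds were tested under these conditions; 0.045% (about 31) showed 50% or more at least once.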
B: 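Cell assay of Leishmania donovani living inside macrophages; the read-out is not stated. Concentration: 30 µM. Higher reads as stronger inhibition (inferred: compounds with an IC50 in retests scored well above the rest). Size under these conditions: about 69,000 compounds, about 1,000 of them at 50% or above in at least one test.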
C: 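Assay of Toxoplasma gondii numbers, read through their beta-galactosidase reporter with a colour substrate. Tested at 10 µM. Higher reads as fewer parasites (inferred from which compounds were picked for retests). Of about 67,000 compounds tested this way, about 260 (0.38%) reached 50% or more in at least one test.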
D: 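Coenzyme A biosynthesis protein CoaBC, Mycobacterium tuberculosis (UniProt P9WNZ1). Enzyme assay of CoaBC with a phosphate dye (Biomol Green) read at 650 nm. Compounds at 30 µM. Direction is inferred from only a few compounds that gave an IC50; most scored high, so higher reads as stronger inhibition. Most strong results did not repeat in a second test. Of about 67,000 compounds tested this way, about 40 (0.06%) reached 50% or more in at least one test.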
E: 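Histidine-tRNA ligase, Leishmania infantum (UniProt A4I591). Enzyme assay of histidyl-tRNA synthetase; the read-out is not stated. Tested at 30 µM. Higher reads as stronger inhibition (inferred: compounds with an IC50 in retests scored well above the rest). The assay is labelled LdHisRS but filed under L. infantum. Size under these conditions: about 69,000 compounds, about 410 of them at 50% or above in at least one test.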

Values are the deposited “Percent Effect”, in %. How 0% and 100% were set is not recorded. Most values in the screen are low, and negative values occur. The compounds are a random part of those screened. Two or more numbers in one place are separate tests of the same structure; such repeats can differ widely.

Cc1nnsc1CN(C)C(=O)CN1CC2(CCNCC2)OC1=O gave A: 6.494%; B: -0.5615%; C: 9.518%; E: 31.43%.
Cc1cc(NCC(=O)N(C)CC(F)(F)F)c(C(N)=O)cc1F gave A: 8.287%; B: 35.71%; C: 3.895%; D: 7.323%; E: 9.859%.
Cc1cccc(C(=O)N2CCn3cnc(COCC4CC4)c3C2)n1 gave A: 0%; B: 23.15% and 1.04%; C: 2.032%; D: -1.053%; E: 20.35%.
Nc1nc2c(c(NC(=O)Nc3ccc(Cl)c(Cl)c3)n1)CCCC2 gave A: 6.186%; B: -0.5237% and 3.153%; C: -18.92%; D: -15.43%; E: 10.43%.
O=C(c1ccc[nH]1)N1CCO[C@H]2CC(COCc3ccccn3)C[C@@H]21 (stereo not given in full) gave A: 2.532%; E: 12.07%.
CC(O)CN(Cc1cccc(C(N)=O)c1)c1ccccc1 (stereo not given) gave A: -3.743%; B: 24.58%; C: -3.433%; D: 6.087%; E: 8.901%.
CC[C@H]1N(C)CCC[C@]12CCC(=O)N2Cc1ccncc1 gave A: 2.256%; D: -0.4837%; E: 36.59%.
Cn1nc(C2CCN(C(=O)Cc3cccc(F)c3)CC2)c2cccnc21 gave A: 2.703%; D: -1.667%; E: 11.11%.
[H][C@@]12COC[C@H](c3nc(C)no3)[C@]1([H])CN(C(=O)Cc1ccsc1)C2 gave B: 19%; C: 2.109%.
COCC(=O)N1CCN(C)c2ncccc2C1 gave A: 4.95%; B: 8.146%; C: 4.762%; D: 1.468%; E: 20.55%.
CCc1ncc2c(n1)CN(CC(=O)Nc1ccc(Cl)cn1)CC2 gave A: 1.887%; B: 36.98%; C: -4.692%; D: 3.52%; E: 25.68%.
[H][C@@]12CN(C(=O)COC)C[C@]1([H])OCCN2Cc1c(C)noc1C gave B: 11.49%; C: -0.7101%.
CCN1CC2(CCN(CCOCCO)CC2)CC(c2ccccc2)C1=O (stereo not given) gave A: 1.245%; B: 6.745%; C: -2.423%; D: -3.125%; E: 10.68%.
CCN(Cc1cccc(C(=O)Nc2c(C)cnn2C)c1)[C@H]1COC[C@@H]1O gave A: 3.191%; B: -7.839%; C: -10.93%; D: 6.827%; E: 13.43%.
CC(C)N1CCOCC2(CCN(c3cnccn3)CC2)C1 gave A: 1.031%; D: 6.404%; E: 16%.
Cc1cc(-c2cnc(NC3CCCCC3)nc2-c2ccco2)on1 gave A: 10.64%; B: -9.972%; C: 16.78%; D: 7.598%; E: 13.54%.
CCC(C)(NCc1nnc(C(C)(C)C)o1)c1nccs1 (stereo not given) gave A: -0.5236%; B: 8.474%; C: 3.59%; D: 10.92%; E: 17.24%.
Cc1cc(=O)n(C)cc1NC(=O)Cc1ccc(C(F)(F)F)cc1 gave A: 14.21%; B: -37.9%; C: 5.464%; D: 7.579%; E: 106.8%.
CCc1nn(C)c(Cl)c1CN1CCCC2(CC1)CN(C)C(=O)O2 (stereo not given) gave A: 8.458%; B: -62.37%; C: 16.92%; D: 4.642%; E: 1.205%.
O=C(NCCc1cccs1)[C@]12COC[C@H]1CN(Cc1ccccn1)C2 gave A: 1.031%; D: -1.478%; E: -10%.
COc1ccc(C)cc1CN(C)CC(N)=O gave A: 7.182%; B: 1.972%; C: 1.377%; D: 0.3822%; E: 8.29%.
CS(=O)(=O)CCn1ccc(NC(=O)c2c(F)cccc2F)n1 gave A: 2.591%; B: -15.62%; C: -28.76%; D: 4.427%; E: -14.61%.
Cc1ccccc1C(NC(=O)NCC1(CO)CC1)C1CC1 (stereo not given) gave A: 5%; B: -28.06%; C: -0.5682%; D: 0%; E: -0.9009%.
COc1ccc(OCCN2CCC(c3ccnn3CCO)CC2)cc1 gave A: 3.468%; B: 27.99%; C: -31.68%; D: 0.9126%; E: 13.16%.

2 of the entries, repeated:

Cc1cc(-c2cnc(NC3CCCCC3)nc2-c2ccco2)on1 read A: 10.64%; B: -9.972%; C: 16.78%; D: 7.598%; E: 13.54%.
[H][C@@]12CN(C(=O)COC)C[C@]1([H])OCCN2Cc1c(C)noc1C read B: 11.49%; C: -0.7101%.